Laboratory results: PMC4795689
Changes are numbered by the printed parent chain. No constants are given. Whether binding was seen depends on the method and setting. In cells and extracts the contact can be indirect. Some entries that bind do so weakly or less than the wild type. Tags and fused reporters may be left off the sequences shown.

The chains behind the UniProt entries cited, without tags or fusion partners. Residues count along the entry.
UniProt P04629, residues 33-796: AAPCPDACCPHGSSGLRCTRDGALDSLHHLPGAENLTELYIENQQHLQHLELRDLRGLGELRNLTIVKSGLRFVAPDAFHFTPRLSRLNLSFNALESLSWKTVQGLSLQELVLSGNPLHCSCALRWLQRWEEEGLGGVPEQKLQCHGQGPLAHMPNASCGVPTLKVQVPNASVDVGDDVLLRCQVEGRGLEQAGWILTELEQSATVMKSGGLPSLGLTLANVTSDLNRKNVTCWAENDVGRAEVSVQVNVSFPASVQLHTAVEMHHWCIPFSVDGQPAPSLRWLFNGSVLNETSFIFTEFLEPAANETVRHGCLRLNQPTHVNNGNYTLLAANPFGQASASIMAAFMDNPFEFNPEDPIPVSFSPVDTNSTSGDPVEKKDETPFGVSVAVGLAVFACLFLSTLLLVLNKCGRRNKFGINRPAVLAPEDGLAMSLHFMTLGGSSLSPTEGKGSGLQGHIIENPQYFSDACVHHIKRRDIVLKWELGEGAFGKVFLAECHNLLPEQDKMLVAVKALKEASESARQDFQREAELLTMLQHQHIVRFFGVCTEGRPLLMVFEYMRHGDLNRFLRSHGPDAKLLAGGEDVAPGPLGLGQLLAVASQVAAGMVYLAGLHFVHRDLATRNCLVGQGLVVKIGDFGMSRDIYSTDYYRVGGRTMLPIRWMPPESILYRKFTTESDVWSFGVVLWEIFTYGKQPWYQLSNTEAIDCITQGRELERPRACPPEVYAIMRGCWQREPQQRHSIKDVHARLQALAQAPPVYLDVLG

T1: hP2X7R-WT fused at the C-terminus to Cerulean or cp49Venus (human) (UniProt Q99572)
T1 sequence: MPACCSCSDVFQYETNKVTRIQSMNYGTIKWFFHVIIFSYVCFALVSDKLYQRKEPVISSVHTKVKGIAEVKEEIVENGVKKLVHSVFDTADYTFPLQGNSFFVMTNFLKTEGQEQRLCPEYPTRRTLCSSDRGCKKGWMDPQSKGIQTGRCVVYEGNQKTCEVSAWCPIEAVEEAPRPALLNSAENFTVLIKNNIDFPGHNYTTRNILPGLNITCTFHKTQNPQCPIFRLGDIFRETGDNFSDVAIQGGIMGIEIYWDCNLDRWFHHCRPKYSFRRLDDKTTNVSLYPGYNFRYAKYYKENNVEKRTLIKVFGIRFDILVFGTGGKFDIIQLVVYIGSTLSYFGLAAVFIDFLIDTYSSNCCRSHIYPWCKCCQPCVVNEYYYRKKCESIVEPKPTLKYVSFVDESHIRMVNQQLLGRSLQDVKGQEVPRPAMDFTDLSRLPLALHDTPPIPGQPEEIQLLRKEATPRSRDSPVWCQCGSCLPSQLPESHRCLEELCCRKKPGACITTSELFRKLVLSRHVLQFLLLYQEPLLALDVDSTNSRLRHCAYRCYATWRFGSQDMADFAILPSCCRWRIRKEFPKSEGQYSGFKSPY

T2: STREP-tagged hP2X7R-WT (human) (UniProt Q99572)
T2 sequence: T1 sequence

B1: HIS-tagged hP2X7R-Gln460Arg (receptor, UniProt Q99572 1-595)
chain: T1 sequence with Q460R
B2: hP2X7R-WT fused at the C-terminus to Cerulean or cp49Venus (receptor, UniProt Q99572 1-595)
chain: T1 sequence
B3: hP2X7R-Gln460Arg fused at the C-terminus to Cerulean or cp49Venus (receptor, UniProt Q99572 1-595)
chain: T1 sequence with Q460R

Legend:
[1] = target: T1, hP2X7R-WT fused at the C-terminus to Cerulean or cp49Venus (human); experiment: FRET or BRET; sensitised-emission FRET (Cerulean donor, cp49Venus acceptor) in living transfected HEK293 cells at 37°C; confocal; NFRET by PixFRET, quantified in ROIs at the cell membrane
[2] = target: T2, STREP-tagged hP2X7R-WT (human); experiment: co-IP; HEK293 clones stably co-expressing STREP-hP2X7R-WT and HIS-hP2X7R-Gln460Arg; membrane fractions; modified RIPA buffer (Triton X-100 1%, SDS 0.1%); IP with anti-STREP or anti-HIS, immunoblot with the same antibodies; mock IP with normal mouse IgG
[3] = target: hP2X7R-Gln460Arg fused at the C-terminus to Cerulean or cp49Venus (human) (UniProt Q99572); experiment: FRET or BRET; sensitised-emission FRET (Cerulean donor, cp49Venus acceptor) in living transfected HEK293 cells at 37°C; confocal; NFRET by PixFRET, quantified in ROIs at the cell membrane

Molecule | binding [1] | binding [2] | binding [3]
tyrosine kinase receptor A (TRKA) fused to Venus (from UniProt P04629 33-796) | no binding | – | –
B1 | – | binds | –
B2 | binds | – | –
B3 | binds | – | binds
